PubChem BioAssay AID1508597 | Cure First – 2020
Screen: 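Genes whose silencing sensitises or protects ovarian cancer cells against rucaparib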 (primary screen). System: human ovarian carcinoma lines grown from tumours: OCI-P5x (papillary serous) and OCI-C5x (clear cell). Knock-down reagent: siRNA pool against human genes, 1.25 pmol siRNA per well. Duration: 72 h or 96 h, depending on the cell culture. Conditions: rucaparib 20 µM (about IC30) or vehicle, present until read-out. Rucaparib or vehicle: Vehicle. Cell line: OCI-C5x (clear cell). Measured: 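ATP luminescence measured at 72 or 96 h according to the culture, then normalised and expressed as percent viability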. Direction: viability, normalised: higher = more viable cells remaining. Call rule: 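Active when normalised viability falls below 80 percent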. Calls: active = viability under 80%; inactive = viability 80% or more.
This is a random part of the about 2,100 reagents, under one of the conditions tested. 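Calls flag viability under 80% in either arm, not effects specific to rucaparib; the reference for percent is not stated.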 A reagent listed more than once was tested more than once; the source does not tell the runs apart. Not given: the 100% reference.

gene	technical replicate	viability, normalised (%)	Call
CLU (GeneID 1191)	1	41.3	active
CLU (GeneID 1191)	2	29.9	active
CLU (GeneID 1191)	3	47.3	active
POLD4 (GeneID 57804)	1	56.9	active
POLD4 (GeneID 57804)	2	51	active
POLD4 (GeneID 57804)	3	43	active
RNASEL (GeneID 6041)	1	65	active
RNASEL (GeneID 6041)	2	47.2	active
RNASEL (GeneID 6041)	3	48.3	active
MED21 (GeneID 9412)	1	54.4	active
MED21 (GeneID 9412)	2	49.1	active
MED21 (GeneID 9412)	3	54.3	active
HDGFL2 (GeneID 84717)	1	48.8	active
HDGFL2 (GeneID 84717)	2	28.8	active
HDGFL2 (GeneID 84717)	3	43.6	active
DNM3 (GeneID 26052)	1	54.3	active
DNM3 (GeneID 26052)	2	40	active
DNM3 (GeneID 26052)	3	54.3	active
PANK1 (GeneID 53354)	1	54.2	active
PANK1 (GeneID 53354)	2	42.5	active
PANK1 (GeneID 53354)	3	58.7	active
TADA2A (GeneID 6871)	1	64.6	active
TADA2A (GeneID 6871)	2	64.5	active
TADA2A (GeneID 6871)	3	59.8	active
KDM3A (GeneID 55818)	1	59.7	active
KDM3A (GeneID 55818)	2	46.9	active
KDM3A (GeneID 55818)	3	45.9	active
KDM2B (GeneID 84678)	1	51.2	active
KDM2B (GeneID 84678)	2	64.7	active
KDM2B (GeneID 84678)	3	53.7	active
PALS2 (GeneID 51678)	1	56.2	active
PALS2 (GeneID 51678)	2	41.1	active
PALS2 (GeneID 51678)	3	46.9	active
TRIM33 (GeneID 51592)	1	43.1	active
TRIM33 (GeneID 51592)	1	51.7	active
TRIM33 (GeneID 51592)	2	54.4	active
TRIM33 (GeneID 51592)	2	67.1	active
TRIM33 (GeneID 51592)	3	44.3	active
TRIM33 (GeneID 51592)	3	54.5	active

Sorted by “viability, normalised (%)” (ascending): some entries from above.
gene	technical replicate	viability, normalised (%)	Call
POLD4 (GeneID 57804)	3	43	active
RNASEL (GeneID 6041)	2	47.2	active
RNASEL (GeneID 6041)	3	48.3	active
POLD4 (GeneID 57804)	2	51	active
MED21 (GeneID 9412)	1	54.4	active
POLD4 (GeneID 57804)	1	56.9	active
RNASEL (GeneID 6041)	1	65	active

Additional reagents follow:
gene	technical replicate	viability, normalised (%)	Call
RPA3 (GeneID 6119)	1	59.7	active
RPA3 (GeneID 6119)	2	41.6	active
RPA3 (GeneID 6119)	3	40.5	active
AKAP1 (GeneID 8165)	1	44.5	active
AKAP1 (GeneID 8165)	2	39.9	active
AKAP1 (GeneID 8165)	3	44.3	active
H4C5 (GeneID 8367)	1	55.8	active
H4C5 (GeneID 8367)	2	58.6	active
H4C5 (GeneID 8367)	3	68.6	active
BAZ2A (GeneID 11176)	1	11.3	active
BAZ2A (GeneID 11176)	2	16.7	active
BAZ2A (GeneID 11176)	3	13.8	active
STK33 (GeneID 65975)	1	53.8	active
STK33 (GeneID 65975)	2	67.4	active
STK33 (GeneID 65975)	3	63.1	active
TDRD1 (GeneID 56165)	1	50.9	active
TDRD1 (GeneID 56165)	2	52	active
TDRD1 (GeneID 56165)	3	39.4	active
DDR2 (GeneID 4921)	1	72.1	active
DDR2 (GeneID 4921)	2	55.4	active
DDR2 (GeneID 4921)	3	67.5	active
TBL1Y (GeneID 90665)	1	36.3	active
TBL1Y (GeneID 90665)	2	63.3	active
TBL1Y (GeneID 90665)	3	55.5	active
PIKFYVE (GeneID 200576)	1	52.7	active
PIKFYVE (GeneID 200576)	2	43.8	active
PIKFYVE (GeneID 200576)	3	29.5	active
RAB38 (GeneID 23682)	1	86	inactive
RAB38 (GeneID 23682)	2	75.1	active
RAB38 (GeneID 23682)	3	68.9	active
LMTK3 (GeneID 114783)	1	69.1	active
LMTK3 (GeneID 114783)	2	80.2	inactive
LMTK3 (GeneID 114783)	3	72.3	active
PRKAG2 (GeneID 51422)	1	47.9	active
PRKAG2 (GeneID 51422)	1	69.3	active
PRKAG2 (GeneID 51422)	2	88.7	inactive
PRKAG2 (GeneID 51422)	2	44.2	active
PRKAG2 (GeneID 51422)	3	39	active
PRKAG2 (GeneID 51422)	3	55.7	active
